Literature values in US20110165113A1, “POLYMER CONJUGATES OF V681-LIKE PEPTIDES” (Nektar Therapeutics, priority 2008, published 2011).
Some entries share one result that the patent states for a list of compounds. Square brackets hold non-standard residues; d marks the D form. Peptide text beside a SMILES is read from it.

Test system: gram negative and gram positive bacteria
Conditions: towards gram negative and gram positive bacteria; vs native V681; cited from earlier work

SMILES: CC[C@H](C)[C@H](NC(=O)[C@H](C)NC(=O)[C@H](CCCCN)NC(=O)[C@H](CC(C)C)NC(=O)[C@H](C)NC(=O)[C@@H](NC(=O)[C@H](Cc1c[nH]cn1)NC(=O)[C@H](CC(C)C)NC(=O)[C@@H](NC(=O)[C@@H](NC(=O)[C@H](CCCCN)NC(=O)[C@@H](C)NC(=O)[C@H](C)NC(=O)[C@H](CO)NC(=O)[C@H](CCCCN)NC(=O)[C@H](Cc1ccccc1)NC(=O)[C@@H](NC(=O)[C@H](CCCCN)NC(=O)[C@H](CC(C)C)NC(=O)[C@H](Cc1ccccc1)NC(=O)[C@H](CO)NC(=O)[C@H](CCCCN)NC(=O)[C@H](Cc1c[nH]c2ccccc12)NC(=O)[C@H](CCCCN)NC(C)=O)[C@@H](C)O)[C@@H](C)O)C(C)C)[C@@H](C)O)C(=O)N[C@@H](CO)C(=O)N[C@@H](CO)C(N)=O [V681 (V13AD)] (Ac-KWKSFLKTFKSA[dA]KTVLHTALKAISS-NH2)
- therapeutic index, fold greater than the native peptide: 17 to 90 fold
